Part of at least one peptide drawing is inferred or uncertain, most often the ends. Bridge positions count the residues as written; N and C are the ends. Square brackets hold non-standard residues; d marks the D form. Peptide text beside a SMILES is read from it. Aib = CC(C)(N)C(=O)O
Test system: WEHI 164 cells
Test: In vitro cytotoxicity assay: protection of WEHI 164 cells from TNF-α cytotoxicity (AlamarBlue)
Assay type: cell-based, mouse
Conditions: 16 h
Procedure: In vitro cytotoxicity assay Cell line
The murine fibrosarcoma cell line L929 is widely used for testing TNF-α cytotoxicity in vitro. In addition, other cell lines are available that are more sensitive, such as the WEHI 164, a mouse myosarcoma cell line. Both cell lines were initially screened for use in the following experiments and WEHI 164 cells were chosen for their higher sensitivity.
Cells are maintained in serum free medium Ultraculture (Biowhittaker) with the addition of 2 mM Glutamine. The assay is carried out in the same serum free medium.
In the cytotoxicity assay, a susceptible cell line (WEHI 164) is incubated in medium containing serial dilutions of TNF-α for a set time and the consequent cytotoxic activity, manifested as inhibition of cell growth and/or cell death, is evaluated by spectrophotometer measurements of vital dye uptake.
Peptide stock solutions are made in HBSS at the concentration of 1 mg/ml, sterilized by passage through a 0.20 μm×13 mm cellulose acetate filters (Corning). The solutions were used for no longer than 10 days. All the other dilutions needed for the test were prepared just before the assay in sterile manner using the medium Ultraculture.
WEHI 164 cells are taken from logarithmic growth and seeded in 96 well microtiter plates at the density of 2500 cells/well. The assay is performed 48 hours later, at a cell density of approximately 3000 cells/well. Cells are pre-incubated with serial dilutions of peptides for 30 minutes, then TNF-α is added to the wells and incubated for 16 hours at 37° C. Samples are repeated in triplicate.
Control wells for non treated cells contain medium only. A concentration curve of TNF-α is performed for every assay at concentrations ranging between 200 and 1 ng/ml. A control for full protection from TNF-α cytotoxicity is carried out by pre-incubating TNF-α with A2 antibody (Centocor, Malvern Pa.) for 30 minutes then adding it to the cells.
After 16 hour incubation, the vital dye AlamarBlue (Alamar Biosciences) is added in the amount equal to 10% final volume. The plates are returned to the incubator for 6-10 hours.
Absorbance is evaluated at 570 nm, subtracting the background absorbance measured at 595 nm in a BioRad microtiter plate reader.
Values are expressed as a percentage of cell survival, where the control samples (containing medium only) are referred to as 100%.

[1] = 100 μg/ml peptide, TNF 25 ng/ml

| Compound | % cell survival (50 μg/ml peptide, TNF 25 pg/ml) [%] | % cell survival (100 μg/ml peptide, TNF 25 pg/ml) [%] | % cell survival (50 μg/ml peptide, TNF 25 ng/ml) [%] | % cell survival [1] [%] |
| --- | --- | --- | --- | --- |
| CC[C@H](C)[C@@H]1NC(=O)[C@@H](N)CSSC[C@@H](C(=O)O)NC(=O)[C@H](CCCCN)NC(=O)[C@H]([C@@H](C)O)NC(=O)[C@H](CCC(N)=O)NC(=O)[C@H](Cc2ccc(O)cc2)NC(=O)[C@H](CO)NC(=O)C(C)(C)NC(=O)[C@H](C)NC1=O [Peptide 533, Cys-Ile-Ala-AIB-Ser-Tyr-Gln-Thr-Lys-Cys] (H-CIA[Aib]SYQTKC-OH; disulfide 1-10) | 46.8 ± 0.5 | 69.0 ± 5 | – | – |
| C[C@@H]1NC(=O)[C@@H](N)CSSC[C@@H](C(=O)O)NC(=O)[C@H](CCC(N)=O)NC(=O)[C@H](Cc2ccc(O)cc2)NC(=O)[C@@H](CO)NC(=O)C(C)(C)NC1=O [Peptide 560, Cys-Ala-AIB-dSer-Tyr-Gln-Cys] (H-CA[Aib][dS]YQC-OH; disulfide 1-7) | – | – | 57 ± 17 | 68 ± 5 |
| C[C@@H]1NC(=O)[C@@H](N)CSSC[C@@H](C(=O)O)NC(=O)[C@H](CCC(N)=O)NC(=O)[C@@H](Cc2ccc(O)cc2)NC(=O)[C@H](CO)NC(=O)C(C)(C)NC1=O [Peptide 621, Cys-Ala-AIB-Ser-dTyr-Gln-Cys] (H-CA[Aib]S[dY]QC-OH; disulfide 1-7) | – | – | 53 ± 6 | 49.8 ± 4 |
